The text below walks through data of PubChem BioAssay AID1487 (National Center for Advancing Translational Sciences (NCATS), 2009).

The assay can be described thus: qHTS Assay for Modulators of Lamin A Splicing. The note with it: HeLa LMNA splicing GFP/RFP minigene ratio, 48 h. An outline of the steps: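 Read-out is the ratio of GFP to DsRed2 object intensity, acquired by 488 nm laser-scanning cytometry on HeLa lamin A-EGFP minigene reporter cells. Compound incubation 48 hrs at 37 °C in Opti-MEM with 2% FBS; DMSO 0.5% final.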
Background: qHTS replaces the single test concentration by a dilution series.

The mark [1] stands for this setting: measured here: RFP viability control channel.
Where [2] appears, read: measured here: GFP splicing reporter channel.

Several values for one entry are separate records, joined by “and”; a condition that tells them apart may be missing. Equal values may be shown once. Some of the results follow. The main result of the screen is listed elsewhere. These columns were measured beside it and carry no call. The list favours compounds with an active or inconclusive main result. Words in brackets tell the shape of the fitted curve; partial curves, single points and poor fits give uncertain potencies.

Broadly, the AC50 is the concentration giving half of the maximal activity seen. Turning to `CC(Oc1ccc(F)cc1)C(=O)Nc1ccc2ccccc2c1` (configuration not stated), the AC50 under setting [1] was 12.6 µM [rising, partial curve, poor fit].
As for `CC(Sc1ccccc1)C(=O)NN=C1CCCC1` (configuration not stated), the AC50 reads like this: under setting [2], 20 µM [falling, partial curve, poor fit]; under setting [1], 15.8 µM [falling, single point].
With `CCCCc1nn2c(=O)cc(COC(=O)c3cccc(NC(=O)c4cccc(C)c4)c3)nc2s1`, under setting [2], the concentration at half-maximal activity (AC50) was 0.794 µM [rising, full curve, poor fit].
For the compound `Cn1cc(CNCc2cn[nH]c2-c2ccc(F)cc2)c(-c2ccc3c(c2)OCCO3)n1`, the AC50 reads like this: under setting [2], 1.58 µM [falling, partial curve, poor fit]; under setting [1], 0.00891 µM [falling, full curve, poor fit].
Turning to `N#CCSc1nc(Nc2ccc3c(c2)OCO3)c2ccccc2n1`, the concentration at half-maximal activity (AC50) was 7.94 µM [rising, partial curve] under setting [2] and 10 µM [rising, partial curve, poor fit] under setting [1].
`O=C(Cc1ccccc1)N/N=C/c1cccc([N+](=O)[O-])c1`: the AC50 reads like this: under setting [2], 5.01 µM [rising, partial curve, poor fit]; under setting [1], 0.891 µM [rising, full curve, poor fit].
`COc1ccccc1N1CCN(S(=O)(=O)c2cc(C)sc2C)CC1`: the AC50 is, setting by setting: under setting [2], 25.1 µM [falling, partial curve]; under setting [1], 22.4 µM [falling, single point].
As to `Cc1csc(Sc2nc3c(c(=O)[nH]c(=O)n3C)n2CCCc2ccccc2)n1`, the AC50 under setting [1] is 1.78 µM [falling, partial curve, poor fit].
Still for that read-out and setting: the figure for `Cc1nc(N2CCN(Cc3ccccc3)CC2)nc2c1C(=O)CCC2` is 10 µM [rising, partial curve, poor fit].
As to `CCCSC1=NC2(CCN(C(=O)NC3CCCCC3)CC2)N=C1c1ccccc1`, the AC50 reads like this: under setting [2], 0.2 µM [falling, full curve]; under setting [1], 0.0355 µM [falling, full curve, poor fit].
In the case of `COc1ccc(OC)c(NC(=O)c2cccc(Cn3cc(Br)c([N+](=O)[O-])n3)c2)c1`, the AC50 under setting [2] was 20 µM [rising, single point].
Regarding `O=C1C(=O)N(C2CCCC2)C(=O)N1Cc1c(F)cccc1Cl`, the AC50 under setting [2] is 0.251 µM [rising, full curve].
Take `CCOc1cccc(/C=N/NC(=S)Nc2ccccc2[N+](=O)[O-])c1O`: the AC50 was 10 µM [falling, partial curve] under setting [2] and 8.91 µM [falling, partial curve, poor fit] under setting [1].
For `NC12CC3CC(CC(C3)C1)C2`, the AC50 is, setting by setting: under setting [2], 0.00398 µM [falling, full curve, poor fit]; under setting [1], 15.8 µM [rising, single point] and 4.47 nM [falling, full curve, poor fit].
For `Fc1cccc(Cl)c1CNc1n[nH]c(-c2ccco2)n1`, the AC50 under setting [2] is 28.2 µM [falling, partial curve].
As for `CC(C)CCNC(=O)c1ccc(Cn2c(SCC(=O)NC(C)C)nc3ccccc3c2=O)cc1`, the AC50 under setting [2] is 31.6 µM [falling, single point] and the AC50 under setting [1] is 35.5 µM [falling, single point].
For `O=S(=O)(c1ccccc1)c1ncc(C(F)(F)F)cc1Cl`, the AC50 under setting [1] was 2.82 µM [falling, single point].
As to `COc1ccc(N2CCN(c3nc(NCCc4ccc(OC)c(OC)c4)nc(OC)n3)CC2)cc1`, the AC50 was 14.1 µM [rising, partial curve] under setting [2] and 11.2 µM [rising, partial curve] under setting [1].
With `Cc1oc2ccc(OCc3ccc(F)cc3)cc2c1C(=O)O`, under setting [1], the half-maximal activity concentration (AC50) is 20 µM [falling, partial curve].
Take `CC(=O)Nc1ccc(S(=O)(=O)N2CCSC2c2ccccc2Cl)cc1` (configuration not stated): the AC50 under setting [1] is 35.5 µM [rising, single point].
As for `FC(F)(F)c1ccccc1-c1ccc2ncnc(NC3CCNCC3)c2c1`, the AC50 under setting [1] was 31.6 µM [rising, single point].
As to `CCc1ccc(-n2c(SCC(=O)NC(C)CC)nc3n[nH]c(C)c3c2=N)cc1` (configuration not stated), the AC50 under setting [1] is 0.0316 µM [falling, full curve, poor fit].
Regarding `COc1ccc(F)cc1C(=O)C1CCCN(C(=O)Cc2c(C)noc2C)C1` (configuration not stated), the AC50 under setting [1] was 0.282 µM [falling, full curve].
Regarding `COc1ccc(S(=O)(=O)N(C)CC(=O)Nc2ccc(C(F)(F)F)cc2)cc1Cl`, the concentration at half-maximal activity (AC50) under setting [2] is 25.1 µM [rising, single point].
On to `O=S1(=O)CCN(Cc2csc(-c3cccs3)n2)CC1`, for which the AC50 under setting [1] is 1 µM [falling, partial curve, poor fit].
`N#C/C(=C\c1ccc(O)c(O)c1)C(=O)c1ccc(O)c(O)c1`: the AC50 runs as follows: under setting [2], 15.8 µM [falling, single point]; under setting [1], 15.8 µM [rising, single point].
As to `CN(CC(=O)Nc1ccc(Cl)cc1)c1ccc(S(=O)(=O)N2CCCCC2)cc1[N+](=O)[O-]`, the AC50 under setting [1] was 12.6 µM [rising, partial curve].
For `CCn1c(=N)n(CCOc2ccc(Br)cc2)c2ccccc21`, under setting [2], the AC50 was 25.1 µM [falling, single point].
Take `COc1ccc(COc2ccccc2C(N)=O)cc1F`: the AC50 under setting [1] is 14.1 µM [rising, single point].
On to `Cc1[nH]n(-c2ccc(Cl)cc2)c(=O)c1/C=N/n1c(C)nc2ccccc2c1=O`, for which the AC50 under setting [1] was 22.4 µM [rising, single point].
For the compound `CC(C)c1ccc2nc(N)sc2c1`, the AC50 under setting [2] is 3.16 µM [rising, partial curve, poor fit].
On to `Cc1ccc(C(C)C)cc1C(=O)CC1(O)C(=O)N(C)c2ccccc21` (configuration not stated), for which the half-maximal activity concentration (AC50) by setting is: under setting [2], 10 µM [rising, partial curve]; under setting [1], 12.6 µM [rising, single point].
Consider `N#CC1=C(N)C2=CCCC[C@H]2[C@H](c2ccc(Br)cc2)C1(C#N)C#N`, for which the AC50 under setting [1] is 14.1 µM [rising, partial curve].
Same read-out and setting: the figure for `O=C1c2ccccc2C(=O)C1C1=Nc2ccccc2NC(c2ccccc2)C1` (configuration not stated) is 0.0708 µM [falling, full curve, poor fit].
As to `COc1cccc(/C=C/C(=O)c2ccc(C)c([N+](=O)[O-])c2)c1`, the AC50 under setting [2] is 35.5 µM [falling, single point].
Consider `C=Cn1c(C(=O)O)ccc1-c1ccc(OC)cc1`, for which the AC50 reads like this: under setting [2], 0.0224 µM [rising, partial curve, poor fit]; under setting [1], 0.0224 µM [rising, full curve, poor fit].
Regarding `Oc1ccc(C2=NNC(=NCc3ccc4c(c3)OCO4)SC2)c(O)c1`, the concentration at half-maximal activity (AC50) under setting [1] was 6.31 µM [rising, partial curve].
For the compound `Cc1c(Cl)cccc1NC(=O)C1CCN(c2ncnc3c2nc2n3CCCCC2)CC1`, the AC50 is 0.158 µM [falling, full curve] under setting [2] and 0.0178 µM [falling, full curve, poor fit] under setting [1].
Take `CCCN(CCC)C(=S)NC(=O)c1ccc(-c2ccccc2)cc1`: the AC50 under setting [1] is 25.1 µM [rising, single point].
In the case of `NS(=O)(=O)c1ccc2ccccc2c1`, the half-maximal activity concentration (AC50) was 5.62 µM [falling, single point] under setting [2] and 6.31 µM [falling, single point] under setting [1].
`COc1cc(C(=O)N/N=C/c2ccsc2C)cc(OC)c1OC`: the AC50 under setting [2] was 1.12 µM [falling, full curve] and the AC50 under setting [1] is 1 µM [falling, full curve].
For `CCn1nc(C)c(CCN(C)C(=O)Nc2cc(OC)c(OC)c(OC)c2)c1C`, the concentration at half-maximal activity (AC50) under setting [2] was 35.5 µM [rising, single point].
Consider `O=C(COCc1cc(-c2cccs2)on1)N1CCN(c2cccc(Cl)c2)CC1`, for which the AC50 under setting [2] was 4.47 µM [falling, single point].
For `COC(=O)c1ccc(NC(=O)c2ccc(N(C)S(C)(=O)=O)cc2)cc1`, the AC50 is 2.51 µM [rising, full curve, poor fit] under setting [2] and 10 µM [rising, partial curve] under setting [1].
As to `Nc1ccc(-c2nc3ccc(N)cc3[nH]2)cc1`, the AC50 under setting [2] was 0.0794 µM [rising, partial curve, poor fit].
Turning to `O=C(COc1ccccc1C(=O)Nc1ccccc1)c1ccc(Br)cc1`, the AC50 under setting [1] was 6.31 µM [rising, single point].
For `Cc1cccc(C(=O)N2CCC(=O)N(C(COCc3cccc(Cl)c3)Cc3ccccc3)CC2)c1` (configuration not stated), the AC50 runs as follows: under setting [2], 14.1 µM [rising, partial curve]; under setting [1], 22.4 µM [rising, partial curve].
With `CN(CCCNC(=O)CCCOc1cc(=O)n(C)c2ccccc12)Cc1ccccc1`, the AC50 under setting [2] was 11.2 µM [falling, partial curve, poor fit].
Turning to `Cc1cccc2cc(C#N)c(NCCCn3ccnc3)nc12`, the AC50 is 14.1 µM [rising, partial curve, poor fit] under setting [2] and 12.6 µM [rising, single point] under setting [1].
Regarding `COc1cc(C(=S)NC2CCCCC2)ccc1O`, the AC50 was 35.5 µM [rising, single point] under setting [2] and 31.6 µM [rising, single point] under setting [1].
For the compound `CCCCS(=O)(=O)/C=C\C=C/S(=O)(=O)CCCC`, the AC50 under setting [2] was 35.5 µM [falling, single point] and the AC50 under setting [1] is 28.2 µM [falling, single point].
In the case of `CSc1nnc(-c2ccc([N+](=O)[O-])cc2)o1`, the concentration at half-maximal activity (AC50) under setting [2] is 0.112 µM [falling, full curve, poor fit].
For `Cc1ccccc1-n1c(SCC(=O)c2c(N)n(C)c(=O)n(C)c2=O)nnc1-c1cccnc1`, the concentration at half-maximal activity (AC50) reads like this: under setting [2], 15.8 µM [rising, single point]; under setting [1], 35.5 µM [rising, single point].
On to `N#CCCN(C(=O)Nc1ccc(Cl)c(Cl)c1)c1ccccc1`, for which the AC50 under setting [1] was 31.6 µM [rising, single point].
Take `CCOc1ccc(-n2cc(-c3ccccc3)c3c(N4CCN(c5ccccc5OC)CC4)ncnc32)cc1`: the AC50 under setting [1] is 1 µM [falling, partial curve, poor fit].
